Results taken from patent US8883500B2, “Method of preparing adenosine-resistant anti-tumor T lymphocytes for adoptive immunotherapy” (Northeastern University, priority 2008, dated 2014).
For some assays here: For at least one compound, name, drawing or mass did not settle the structure. Some entries share one result that the patent states for a list of compounds.

Assays:
Format in all cases: cell-based, mice
[1] = test system: A2A/A2B adenosine receptor; test: cAMP assay in CTL; conditions: both control CTL and NECA-CTL
Description: Stimulation of cAMP production and measurement of cAMP levels were performed as described previously (Apasov et al., 2000). […]; from Tocris, Ellisville, Mo.), or forskolin (adenylate cyclase activator; from Sigma). […]

CTL = test: IFN-γ production from CTL restimulated by immobilized anti-CD3 and anti-CD28 mAbs (ELISA); conditions: both control CTL and NECA-CTL; data not shown
Description: CTL (2×10^5 cells) were washed twice with media and restimulated by plate-bound anti-CD3 and anti-CD28 monoclonal antibodies (mAb) (BD Biosciences, San Diego, Calif.). Anti-CD3 mAb (2 μg ml^−1) and anti-CD28 mAb (1 μg ml^−1) diluted in PBS were immobilized in a flat-bottom 96-well plastic culture plate for 1 h at 37° C. before use. In order to examine anti-tumor cellular response, CTL (2×10^5 cells) were also cultured with mitomycin C-treated P815 mastocytoma (2.5×10^5 cells). […]. Culture supernatant after 24-48 h was assayed for IFN-γ levels by ELISA.

CD8+ T cells = test: Flowcytometric analysis (CD8 proportion, intracellular IFN-γ staining); conditions: agonist 10 μM
Description: Cells recovered from mixed lymphocyte culture were labeled with phycoerythrin-conjugated anti-CD8, allophycocyanin-conjugated anti-CD4 and fluorescein-conjugated anti-CD69 mAb, and were analyzed by FACSCalibur (BD Biosciences). Cytokine production from CTL was analyzed by intracellular staining as described (Nishimura et al., 1999). After the stimulation with immobilized anti-CD3 and anti-CD28 mAb for 24 h, cells were further incubated in the presence of brefeldin A (10 μg ml^−1) for 2 h. Cells were fixed with 4% parafolmaldehyde-PBS for 15 min, permeabilized with permeabilizing buffer (50 mM NaCl, 5 mM EDTA, 0.02% NaN3, 0.5% Triton X-100, 10 mM Tris-HCl, pH 7.5) for 15 min, and stained with fluorescein-labeled anti-IFN-γ mAb. IFN-γ-producing CD8^+ cells were identified by cell surface staining using phycoerythrin-conjugated anti-CD8 mAb. All antibodies were obtained from BD Biosciences.

[2] = NECA-CTL (NECA only for the last 2 days)

Structure (SMILES) | cAMP induction by direct activation of adenylate cyclase [1] | IFN-γ production (CTL) | IFN-γ producers, decreased to (CD8+ T cells; [2]) | reduction of IFN-γ producers (CD8+ T cells; [2]) | IFN-γ producers, decreased from 60 to (CD8+ T cells; control CTL)
C=C[C@@]1(C)CC(=O)[C@]2(O)[C@@]3(C)[C@@H](O)CCC(C)(C)[C@@H]3[C@H](O)[C@H](OC(C)=O)[C@@]2(C)O1 [forskolin] | induced high levels of cAMP | strongly suppressed IFN-γ production | – | – | –
CCNC(=O)[C@H]1O[C@@H](n2cnc3c(N)nc(NCCc4ccc(CCC(=O)O)cc4)nc32)[C@H](O)[C@@H]1O [CGS] | – | – | 36-46% | 20-35% | 17-21%
